Test results from the supplement of paper PMC6411743.
± gives the standard deviation of the averaged measurements. Some of the results follow.

Biological target: T1, RAB9A (UniProt P51151)
T1 sequence (whole entry): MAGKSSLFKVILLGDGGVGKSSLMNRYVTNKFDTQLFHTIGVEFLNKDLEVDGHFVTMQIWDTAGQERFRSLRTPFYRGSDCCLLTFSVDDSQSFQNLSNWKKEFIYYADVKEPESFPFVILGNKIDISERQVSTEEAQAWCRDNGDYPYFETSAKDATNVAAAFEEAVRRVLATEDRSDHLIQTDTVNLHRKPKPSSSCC
Experiment: NP40-soluble protein abundance relative to vehicle (solubility fold change) (ratio); higher = more soluble protein in presence of GTP
Description: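 Solubility proteome profiling in Jurkat crude lysate. Lysate was treated with Mg-GTP (0.1-10 mM) for 10 min at room temperature and 3 min at 37 °C, then solubilised with 0.8% NP40 and benzonase, followed by ultracentrifugation. Proteins were quantified by TMT10 LC-MS/MS; the value is the NP40-soluble abundance relative to the NP40-processed vehicle, from 3 independent experiments.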

## Nc1nc2c(ncn2[C@@H]2O[C@H](COP(=O)(O)OP(=O)(O)OP(=O)(O)O)[C@@H](O)[C@H]2O)c(=O)[nH]1 [guanosine triphosphate]
concentration: 0.1mM
  NP40-soluble protein abundance: 0.941 ± 0.065
concentration: 0.5mM
  NP40-soluble protein abundance: 0.98 ± 0.056
concentration: 1mM
  NP40-soluble protein abundance: 0.859 ± 0.053
concentration: 2mM
  NP40-soluble protein abundance: 0.902 ± 0.076
concentration: 4mM
  NP40-soluble protein abundance: 0.841 ± 0.042
concentration: 6mM
  NP40-soluble protein abundance: 0.799 ± 0.069
concentration: 8mM
  NP40-soluble protein abundance: 0.82 ± 0.057
concentration: 10mM
  NP40-soluble protein abundance: 0.805 ± 0.068
